Assay results: publication PMC5672003

T1: …1 (Arabidopsis (endogenous in leaves)) (UniProt P32961)
T1 sequence: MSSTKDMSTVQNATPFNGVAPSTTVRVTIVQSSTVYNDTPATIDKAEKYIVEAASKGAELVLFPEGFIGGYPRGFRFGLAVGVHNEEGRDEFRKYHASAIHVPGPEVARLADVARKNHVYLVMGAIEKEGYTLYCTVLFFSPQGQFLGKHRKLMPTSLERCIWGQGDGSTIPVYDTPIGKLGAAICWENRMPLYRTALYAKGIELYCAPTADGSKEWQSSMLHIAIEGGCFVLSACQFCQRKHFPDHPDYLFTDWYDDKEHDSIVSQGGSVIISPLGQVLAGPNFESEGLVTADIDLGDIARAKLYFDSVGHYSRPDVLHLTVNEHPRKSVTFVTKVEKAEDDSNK

B1: NIT3 (enzyme, UniProt P46010 1-346)
chain: MSSTEEMSSVKNTTQVIGVDPSSTVRVTIVQSSTVYNDTPATLDKAEKFIVEAASKGAKLVLFPEAFIGGYPRGFRFGLAVGVHNEEGRDEFRNYHASAIKVPGPEVERLAELAGKNNVHLVMGAIEKDGYTLYCTALFFSPQGQFLGKHRKVMPTSLERCIWGQGDGSTIPVYDTPIGKIGAAICWENRMPLYRTALYAKGIEIYCAPTADYSLEWQASMIHIAVEGGCFVLSAHQFCKRREFPEHPDYLFNDIVDTKEHDPTVSGGGSVIISPLGKVLAGPNYESEGLVTADLDLGDIARAKLYFDVVGHYSKPDIFNLTVNEHPKKPVTFMTKVEKAEDESNK
B2: THIOREDOXIN M2 (protein, UniProt Q9SEU8 73-186)
chain: CEAQETTTDIQVVNDSTWDSLVLKATGPVVVDFWAPWCGPCKMIDPLVNDLAQHYTGKIKFYKLNTDESPNTPGQYGVRSIPTIMIFVGGEKKDTIIGAVPKTTLTSSLDKFLP

Target: T1, …1 (Arabidopsis (endogenous in leaves))
Assay: affinity purification with mass spectrometry; CoIP-MS with anti-NIT1 antibody against preimmune sera; three biological replicates; cholate-solubilized microsomal proteins of Arabidopsis leaves; hits needed two or more peptides

binding, binds:
THIOREDEXOIN M-TYPE1 (Arabidopsis (endogenous in leaves))
B1
B2

Results are given in words; binding and its absence hold for the method and conditions named. Binding seen in cells or lysates may run through a third protein. These calls come from enrichment with a bait or labelling near it, and not all partners need be listed.
